Measurements taken from PubChem BioAssay AID260 (DTP/NCI, 2004).
The list shows only some results of the screen, not a fair sample: its compounds were picked by chemical class. Other doses and runs of a compound may be missing. T/C is the treated group as % of the vehicle group. Some entries give survivors of the animals treated and no T/C: the source files T/C as zero there, which appears to mark a toxic dose or a test without result, not a measured value. Counts of survivors are from the toxicity check (mostly the fifth day) where no day follows; animals may have died later. Schedules are NCI's codes, read here as Q, the interval in days (D) or hours (H), X, the number of doses. For survival time, this PubChem deposit counts one and a half times the control or more as active, and values a quarter to a half above the control carry no call in these data; other NCI protocols may use other cut-offs. Some T/C values are followed by the survivors on the day toxicity was checked, most often the fifth; where neither a count nor a note follows, no animal had died by that day.

Tested on: CD2F1 mice, intracerebral L1210 leukemia, survival T/C
Experiment: NCI In Vivo Anticancer Drug Screen. Data for tumor model L1210 Leukemia (intracerebral) in CD2F1 (CDF1) mice
Details: higher T/C = longer survival
Description: The antitumor activity of compounds was measured in mice bearing transplantable tumors. Survival or tumor size were measured and the results are expressed as the measurement made in the treated group (T) divided by the measurement made in the vehicle treated control group (C). The tumor model used in this assay is L1210 Leukemia (intracerebral) in CD2F1 (CDF1) mice

[1] = T/C endpoint: median survival time, dose: 32.0 mg/kg/injection, schedule: Q01DX005 (ip), vehicle: saline with Tween-80
[2] = T/C endpoint: median survival time, dose: 64.0 mg/kg/injection, schedule: Q01DX005 (ip), vehicle: saline with Tween-80
[3] = T/C endpoint: median survival time, dose: 128.0 mg/kg/injection, schedule: Q01DX005 (ip), vehicle: saline with Tween-80
[4] = T/C endpoint: median survival time, dose: 256.0 mg/kg/injection, schedule: Q01DX005 (ip), vehicle: saline with Tween-80

SMILES: NC(=O)c1[nH]cnc1/N=N\N(CCCl)CCCl
- T/C [1]: 127 % of control
- T/C [2]: 130 % of control
- T/C [3]: 140 % of control
- T/C [4]: 134 % of control
- survivor count (T/C endpoint: median survival time, dose: 512.0 mg/kg/injection, schedule: Q01DX005 (ip), vehicle: saline with Tween-80): 2 of 6

SMILES: CN(CCCl)/N=N/c1nc[nH]c1C(N)=O
- T/C [1]: 110 % of control
- T/C [2]: 124 % of control
- T/C [3]: 136 % of control
- T/C [4]: 112 % of control
- T/C (T/C endpoint: median survival time, dose: 400.0 mg/kg/injection, schedule: Q01DX005 (ip), vehicle: saline with Tween-80): 87 % of control

SMILES: O=P1(N(CCCl)CCCl)OCCCN1CCCl (centres undefined)
- T/C (T/C endpoint: mean survival time, dose: 50.0 mg/kg/injection, schedule: Q01DX001 (ip), vehicle: water): 129 % of control
- T/C (T/C endpoint: mean survival time, dose: 100.0 mg/kg/injection, schedule: Q01DX001 (ip), vehicle: water): 133 % of control
- T/C (T/C endpoint: mean survival time, dose: 200.0 mg/kg/injection, schedule: Q01DX001 (ip), vehicle: water): 143 % of control [7 of 8 alive]
- survivor count (T/C endpoint: mean survival time, dose: 400.0 mg/kg/injection, schedule: Q01DX001 (ip), vehicle: water): 2 of 8
